The list does not hold the whole screen: it gathers tests that were run many times, whatever their T/C, doses with no T/C, and many T/C values between a quarter and a half above the control. Other doses and runs of a compound stand elsewhere. T/C is the treated group as % of the vehicle group. Some doses have a count of surviving animals in place of a T/C: the source holds a T/C of zero for them, seemingly a mark for toxic or unscored doses. Some doses without a T/C left all or most animals alive at the check, yet need not have been tolerated: the source hardly ever lists a survival T/C far under the control, and the zero likely stands for such cases as well. Counts of survivors are from the toxicity check (mostly the fifth day) where no day follows; animals may have died later. Schedule codes are those of the source, taken here to give the interval after Q, in days (D) or hours (H), and the number of doses after X. Where survival is the endpoint, this PubChem deposit counts one and a half times the control or more as active, and values a quarter to a half above the control carry no call in these data; other NCI protocols may use other cut-offs. Some schedule codes hold Z or #, which are not explained here.
Tested on: L1210 leukemia ip in BDF1 mice, survival T/C
Assay: NCI In Vivo Anticancer Drug Screen. Data for tumor model L1210 Leukemia (intraperitoneal) in B6D2F1 (BDF1) mice
Details: T/C endpoint: mean survival time, higher T/C = longer survival
[1] = dose: 400.0 mg/kg/injection, schedule: Q04DX003 (ip), vehicle: saline with Tween-80
[2] = dose: 100.0 mg/kg/injection, schedule: Q01DX009 (ip), vehicle: saline with Tween-80
[3] = dose: 200.0 mg/kg/injection, schedule: Q01DX009 (ip), vehicle: saline with Tween-80
[4] = dose: 400.0 mg/kg/injection, schedule: Q01DX009 (ip), vehicle: saline with Tween-80
[5] = dose: 400.0 mg/kg/injection, schedule: Q04DX003 (ip), vehicle: Klucel (hydroxypropylcellulose) (HPC)
[6] = dose: 400.0 mg/kg/injection, schedule: Q01DX009 (ip), vehicle: Klucel (hydroxypropylcellulose) (HPC)

SMILES: CNc1c(C)cc(C)c(NC)c1C
- survivor count (dose: 200.0 mg/kg/injection, schedule: Q04DX002 (ip), vehicle: saline with Tween-80): 2 of 3
- survivor count (dose: 400.0 mg/kg/injection, schedule: Q04DX002 (ip), vehicle: saline with Tween-80): 0 of 3

SMILES: CCN(CC)CCOc1cccc(OC)c1
- survivor count (dose: 150.0 mg/kg/injection, schedule: Q01DX009 (ip), vehicle: saline): 3 of 6
- survivor count (dose: 300.0 mg/kg/injection, schedule: Q01DX009 (ip), vehicle: saline): 0 of 6

SMILES: CCCN(CCC)CCCCCCO
- survivor count [1]: 3 of 6

SMILES: COc1ccc2c(c1)CCNC2CCO (stereo unspecified)
- survivor count (dose: 200.0 mg/kg/injection, schedule: Q04DX003 (ip), vehicle: saline): 0 of 6
- survivor count (dose: 400.0 mg/kg/injection, schedule: Q04DX003 (ip), vehicle: saline): 0 of 6

SMILES: CC(=O)Nc1cccc(N=Cc2ccc(N(CCOS(C)(=O)=O)CCOS(C)(=O)=O)cc2C)c1
- T/C (dose: 12.0 mg/kg/injection, schedule: Q01DX009 (ip), vehicle: saline with Tween-80): 140 % of control
- T/C (dose: 18.0 mg/kg/injection, schedule: Q01DX009 (ip), vehicle: saline with Tween-80): 136 % of control
- survivor count [2]: 1 of 6
- survivor count [3]: 0 of 6
- survivor count [4]: 0 of 6

SMILES: COc1ccc(NC(=O)Oc2ccccc2Cc2ccccc2)cc1
- survivor count [5]: 6 of 6

SMILES: O=Cc1[nH]c(=S)[nH]c(=O)c1Cc1cccc2ccccc12
- survivor count [4]: 3 of 6

SMILES: O=C1C=CC(=O)C(SCC(O)CO)=C1 (stereo unspecified)
- survivor count (dose: 75.0 mg/kg/injection, schedule: Q01DX001 (ip), vehicle: other): 0 of 6
- survivor count (dose: 150.0 mg/kg/injection, schedule: Q01DX001 (ip), vehicle: other): 2 of 6
- survivor count (dose: 300.0 mg/kg/injection, schedule: Q01DX001 (ip), vehicle: other): 0 of 6

SMILES: Cc1cccc(C)c1N=C=S
- survivor count (dose: 200.0 mg/kg/injection, schedule: Q04DX003 (ip), vehicle: saline with Tween-80): 5 of 6
- survivor count [1]: 1 of 6

SMILES: O=C(O)c1cscn1
- survivor count [4]: 2 of 3
- survivor count [1]: 2 of 6

SMILES: CCCC(C)OP(=O)(OC(C)CC)OC(C)CC (stereo unspecified)
- survivor count [6]: 0 of 6

SMILES: ClCc1ccncc1
- survivor count (dose: 400.0 mg/kg/injection, schedule: Q01DX009 (ip), vehicle: saline): 0 of 6

SMILES: C(=N\C(/N=C/c1ccccc1)c1ccccc1)/c1ccccc1
- survivor count (dose: 100.0 mg/kg/injection, schedule: Q04DX003 (ip), vehicle: Klucel (hydroxypropylcellulose) (HPC)): 6 of 6
- survivor count (dose: 200.0 mg/kg/injection, schedule: Q04DX003 (ip), vehicle: Klucel (hydroxypropylcellulose) (HPC)): 6 of 6
- survivor count [5]: 6 of 6

SMILES: CCN(CC)C(=O)C1(C)CCCC2(C)c3cc(OC(C)=O)ccc3CCC12 (stereo unspecified)
- survivor count [6]: 5 of 5

SMILES: CCOC(=O)CC(=O)Cc1cccc([N+](=O)[O-])c1
- survivor count [6]: 5 of 6

SMILES: CC(=O)Oc1cc2c3c(c1)CCCN3CCC2
- survivor count [2]: 2 of 6
- survivor count [3]: 1 of 6
- survivor count [4]: 1 of 6

SMILES: O=P(c1ccccc1)(c1ccccc1)c1ccccc1
- survivor count (dose: 400.0 mg/kg/injection, schedule: Q01DX001 (ip), vehicle: saline): 0 of 4

SMILES: CCC(=O)OC1(c2ccccc2)CCN(CCC(O)c2ccccc2)CC1C (stereo unspecified)
- survivor count (dose: 80.0 mg/kg/injection, schedule: Q04DX003 (ip), vehicle: Klucel (hydroxypropylcellulose) (HPC)): 3 of 6

SMILES: CCn1cnc2c(SC(C)C)ncnc21
- T/C (dose: 125.0 mg/kg/injection, schedule: Q01DX Z (ip), vehicle: carboxymethylcellulose (CMC)): 125 % of control

SMILES: COC1OCC(OS(C)(=O)=O)C(NC(C)=O)C1OS(C)(=O)=O (stereo unspecified)
- T/C (dose: 400.0 mg/kg/injection, schedule: Q01DX001 (ip), vehicle: carboxymethylcellulose (CMC)): 126 % of control

SMILES: CSc1ccc(NC(=O)Oc2ccc(C(=O)OCc3ccccc3)cc2)cc1
- survivor count (dose: 200.0 mg/kg/injection, schedule: Q01DX001 (ip), vehicle: saline with Tween-80): 6 of 6

Reference: PubChem BioAssay AID248 (DTP/NCI, 2004)
